# Article PMC6220267
# The chains behind the UniProt entries cited, without tags or fusion partners. Residues count along the entry.
# UniProt P05067, residues 672-713: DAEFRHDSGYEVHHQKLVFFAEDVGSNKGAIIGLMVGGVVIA
# Results are given in words; binding and its absence hold for the method and conditions named. Binding seen in cells or lysates may run through a third protein. Some entries that bind do so weakly or less than the wild type. Sequences can lack the tags named with a protein.
# Target: Aβ42 fibrils (fibrillar Aβ42) (UniProt P05067)
# Experiment: pull-down; Aβ42 fibril pull-down: conditioned media with 5 mM EDTA incubated with Aβ42 fibrils 1 h at room temperature, fibrils pelleted at 18,000 g, washed with PBS; Western blot with V5 antibody; only the target purified
binder,measurement,value
"soluble TREML1‐Fc (human, soluble ectodomain) (Fc fusion, UniProt Q86YW5 16-162) QGIVGSLPEVLQAPVGSSILVQCHYRLQDVKAQKVWCRFLPEGCQPLVSSAVDRRAPAGRRTFLTDLGGGLLQVEMVTLQEEDAGEYGCMVDGARGPQILHRVSLNILPPEEEEETHKIGSLAENAFSDPAGSANPLEPSQDEKSIP",binding,binds
